Results are given in words; binding and its absence hold for the method and conditions named. Binding can be weak; no strength is given.
Target: Human PDGF-BB-RM (Retention Motif) (human)
Test: immunofluorescence staining of fixed PDGFB-RM transfected HEK293 cells, 33 nM

B1: CL-33675-IgG (antibody, V domains shown)
VH: EVTLRESGPALVKPTQTLTLTCTFSGFSLSTYGMGVGWIRQPPGKALEWLANIWWDDDKYYNPSLKNRLTISKDTSKNQVVLTMTNMDPVDTATYYCARIESSGPKYSFDYWGQGTMVTVSS
VL: EIVLTQSPGTLSLSPGERATLSCRASSGSIWYSFVSWYQQKPGQAPRLLIYADDQRASGIPDRFSGSGSGTDFTLTISRLEPEDFAVYYCQSYGINIDVVFGGGTKVEIK
binding: binds
